Test results as given in article PMC5156884.
Results are given in words; binding and its absence hold for the method and conditions named. For some assays here: Binding seen in cells or lysates may run through a third protein. Some binding calls cover weakened binding; strength is not graded here. For some assays here: Tags and fused reporters may be left off the sequences shown.

Chains of the proteins cited; added tags and fusions are not shown. Residues count along the entry.
UniProt Q99K10, residues 46-843: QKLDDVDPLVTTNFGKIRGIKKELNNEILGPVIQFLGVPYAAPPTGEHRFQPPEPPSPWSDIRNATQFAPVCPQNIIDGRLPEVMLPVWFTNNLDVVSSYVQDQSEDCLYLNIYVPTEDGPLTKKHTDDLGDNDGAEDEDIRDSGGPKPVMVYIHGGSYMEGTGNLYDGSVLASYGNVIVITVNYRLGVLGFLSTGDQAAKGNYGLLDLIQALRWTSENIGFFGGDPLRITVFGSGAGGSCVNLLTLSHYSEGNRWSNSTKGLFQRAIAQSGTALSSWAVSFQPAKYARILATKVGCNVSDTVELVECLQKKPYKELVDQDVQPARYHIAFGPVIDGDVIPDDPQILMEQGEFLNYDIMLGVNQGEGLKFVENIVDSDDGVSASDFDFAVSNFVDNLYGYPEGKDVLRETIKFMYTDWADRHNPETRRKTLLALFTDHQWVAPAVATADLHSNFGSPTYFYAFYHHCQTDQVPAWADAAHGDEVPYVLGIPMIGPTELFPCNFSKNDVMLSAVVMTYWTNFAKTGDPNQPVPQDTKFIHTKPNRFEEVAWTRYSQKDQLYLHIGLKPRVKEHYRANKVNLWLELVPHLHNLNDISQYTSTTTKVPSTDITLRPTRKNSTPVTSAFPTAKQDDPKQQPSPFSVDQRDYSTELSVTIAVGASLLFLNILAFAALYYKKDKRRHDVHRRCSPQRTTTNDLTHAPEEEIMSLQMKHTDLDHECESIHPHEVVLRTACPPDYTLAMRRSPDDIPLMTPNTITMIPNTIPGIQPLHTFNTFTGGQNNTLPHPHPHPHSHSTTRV

What was measured:
[1] = molecular target: neuroligin-1 (pCAG-HA-Nlgn1) (UniProt Q99K10); assay: cell adhesion (cell aggregation) assay; two populations of transfected HEK293 cells (EGFP or DsRed) mixed 1:1 in suspension with 10 mM CaCl2 and 10 mM MgCl2, RT, 90 min; aggregation index from images
Lphn1-GFP = molecular target: T1, Lphn1-GFP (UniProt O88917); assay: co-IP; HEK293 cotransfected with a GFP-tagged and an HA-tagged construct; GFP-Trap-A agarose beads, 1.8-2.2 mg total protein; Western blot with anti-HA and anti-GFP
T1 sequence: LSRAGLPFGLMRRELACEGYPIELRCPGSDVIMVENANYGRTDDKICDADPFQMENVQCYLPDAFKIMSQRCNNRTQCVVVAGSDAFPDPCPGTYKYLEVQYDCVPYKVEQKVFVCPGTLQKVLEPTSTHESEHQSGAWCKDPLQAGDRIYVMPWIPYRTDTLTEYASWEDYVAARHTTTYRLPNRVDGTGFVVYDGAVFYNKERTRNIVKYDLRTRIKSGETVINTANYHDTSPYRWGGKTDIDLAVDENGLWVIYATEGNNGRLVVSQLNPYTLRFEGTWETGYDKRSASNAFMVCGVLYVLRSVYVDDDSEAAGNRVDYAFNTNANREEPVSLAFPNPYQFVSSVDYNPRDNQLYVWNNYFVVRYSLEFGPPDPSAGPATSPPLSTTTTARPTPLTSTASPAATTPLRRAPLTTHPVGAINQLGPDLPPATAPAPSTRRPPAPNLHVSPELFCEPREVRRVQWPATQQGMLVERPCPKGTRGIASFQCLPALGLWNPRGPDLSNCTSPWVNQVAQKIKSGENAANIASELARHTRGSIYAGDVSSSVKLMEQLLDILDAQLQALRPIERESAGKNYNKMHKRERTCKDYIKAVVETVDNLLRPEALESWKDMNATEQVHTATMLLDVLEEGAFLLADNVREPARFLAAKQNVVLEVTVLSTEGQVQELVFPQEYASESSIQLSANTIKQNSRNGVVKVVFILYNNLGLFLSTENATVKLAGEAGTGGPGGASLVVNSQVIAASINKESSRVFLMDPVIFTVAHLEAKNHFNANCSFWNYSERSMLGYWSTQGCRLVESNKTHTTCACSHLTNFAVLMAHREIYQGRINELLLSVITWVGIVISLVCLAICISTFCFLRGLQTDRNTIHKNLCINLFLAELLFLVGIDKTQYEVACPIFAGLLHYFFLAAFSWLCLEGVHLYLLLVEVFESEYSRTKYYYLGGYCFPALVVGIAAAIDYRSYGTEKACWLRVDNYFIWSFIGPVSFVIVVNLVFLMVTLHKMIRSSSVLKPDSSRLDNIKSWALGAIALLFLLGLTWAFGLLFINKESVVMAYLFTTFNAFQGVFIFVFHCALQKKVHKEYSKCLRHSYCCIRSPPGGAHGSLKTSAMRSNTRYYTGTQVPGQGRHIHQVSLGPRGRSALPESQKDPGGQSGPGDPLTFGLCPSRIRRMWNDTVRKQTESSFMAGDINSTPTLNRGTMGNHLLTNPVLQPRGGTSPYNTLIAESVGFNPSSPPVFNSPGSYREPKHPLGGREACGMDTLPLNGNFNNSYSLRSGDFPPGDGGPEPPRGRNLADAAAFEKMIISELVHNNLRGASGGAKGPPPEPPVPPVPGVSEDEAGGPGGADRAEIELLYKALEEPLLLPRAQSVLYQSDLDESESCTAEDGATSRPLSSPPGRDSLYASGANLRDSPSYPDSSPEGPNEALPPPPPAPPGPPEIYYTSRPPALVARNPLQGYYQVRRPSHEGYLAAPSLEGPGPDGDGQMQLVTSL

neuroligin-1 (pCAG-HA-Nlgn1) (from UniProt Q99K10 46-843)
binding [1]: binds

B1: HA-Cntn6 (protein, UniProt P97528 20-999)
chain: ESRFTRPIFIQEPQDVIFPLDLSRSEIILSCTASGYPSPHYRWKQNGTDIDFSMTYHYRLDGGSLAISSPRTDQDIGIYQCLATNPVGTILSRKAKLQFAYIEDFETKSRSTVSVREGQGVVLLCGPPPHFGELSYDWTFNDNPLYVQEDKRRFVSQNTGNLYIAKVEPSDVGNYTCFVTNKEAHRSVQGPPTPLVQRTDGVMGEYEPKIEVRFPETIQAAKDSSVKLECFALGNPVPDISWRRLDGSPMPGKVKYSNSQATLEIPKFQQEDEGFYECVAGNLRGRNLAKGQLIFYAPPEWEQKIQNTYLSIYDSLFWECKASGNPNPSYTWLKNGERLNTEERIQTENGTLIITMLNVSDSGIYQCAAENKYQTIYANAELRVLASAPDFSKNPIKKISVVQVGGDISIECKPNAFPKASISWKRGTENLKQSKRVFFLEDGSLKICNVTRSDAGSYTCVATNQFGNGKSSGSLIVKERTVITVPPSKMDVTVGESIVLPCQVSHDPTMEVLFVWYFNGDVIDLKKGVAHFERIGGESVGDLMIRNIQLGHSGKYLCTVQTTLERLSAVADIIVRGPPGPPEDVKVEHISSTTSQLSWRPGPDNNSPIQIFTIQTRTPFSVGWQAVATVPEILNGQTYNATVIGLSPWVEYEFRVVAGNNIGIGEPSKPSELLRTKASIPNVAPVNINGGGGSRSELVITWEPIPEELQNGEGFGYIIMFRPVGSTTWMKEKVALVESSKFIYRNESIMPLSPFEVKVGVYNNEGEGSLSTVSIVYSGEDEPRLAPRGTSVQSFSASDMEVSWNAIAWNRNTGRVLGYEVLYWTDNSKESMIGKIRVSGNVTTKNITGLRANTIYFASVRAYNTAGTGPSSPPVNVTTKKSPPSQPPANIAWKLSNSKLCLNWEHVKTMENESEVLGYKILYRQNRQSKTHVLETNNTSAELLVPFEEDYLIEIRTVSDGGDGSSSEEIRIPKMSSLSS
binding (Lphn1-GFP): binds
